Taken from: PubChem BioAssay AID493246 (Drosophila RNAi Screening Center, 2011)

Aim: 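Genes fly cells need to grow and stay alive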 (primary screen)
Cell system: Drosophila Kc and S2R+ cells
Reagent: long dsRNA against Drosophila genes
Detection: 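Cell number per well after knock-down, printed as raw plate values; calls were based on per-plate z-scores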
Scale: Kc cell number and S2R+ cell number: higher = more cells remaining
Hit rule: 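Active when the per-plate z-score of cell number is 3 or more in the direction of fewer cells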
The deposit covers about 21,000 reagents; shown is an unselected part of those with a known target gene and a result. In the full data, 429 (2%) were called active. 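Values are raw and not normalised between plates; calls rest on per-plate z-scores that were not deposited.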 Reagents against one gene are numbered here. Names joined by + are all predicted targets of the reagent. Not stated in the record: the amount of reagent, the time to read-out.

| gene | reagent | Kc cell number, rep 1 | Kc cell number, rep 2 | S2R+ cell number, rep 1 | S2R+ cell number, rep 2 | outcome |
| --- | --- | --- | --- | --- | --- | --- |
| Alp1 | 1 | 1.48e6 | 1.57e6 | 1.20e6 | 1.29e6 | inactive |
| Crag | 1 | 5.13e5 | – | 8.67e5 | – | inactive |
| CG7168 | 1 | 1.60e6 | 1.59e6 | 1.33e6 | 1.34e6 | inactive |
| CG11588 | 1 | 1.34e6 | 1.42e6 | 1.03e6 | 1.21e6 | inactive |
| CG11588 | 2 | 1.50e6 | 1.69e6 | 1.36e6 | 1.54e6 | inactive |
| CG11095 | 1 | 5.99e5 | – | 8.39e5 | – | inactive |
| CG15824 | 1 | 1.56e6 | 1.56e6 | 1.10e6 | 1.24e6 | inactive |
| CtsK2 | 1 | 1.33e6 | 1.38e6 | 1.17e6 | 1.13e6 | inactive |
| CG5290 | 1 | 1.78e6 | 1.79e6 | 1.50e6 | 1.56e6 | inactive |
| mbf1 | 1 | 1.59e6 | 1.71e6 | 1.27e6 | 1.32e6 | inactive |
| CG11964 | 1 | 1.44e6 | 1.55e6 | 1.24e6 | 1.27e6 | inactive |
| CG3119 | 1 | 1.67e6 | 1.58e6 | 1.02e6 | 1.21e6 | inactive |
| spirit | 1 | 5.47e5 | – | 8.84e5 | – | inactive |
| tau | 1 | 1.49e6 | 1.51e6 | 9.47e5 | 1.07e6 | inactive |
| scu | 1 | 1.42e6 | 1.38e6 | 1.07e6 | 1.09e6 | inactive |
| trbl | 1 | 1.34e6 | 1.41e6 | 1.27e6 | 1.36e6 | inactive |
| CG11404 | 1 | 1.86e6 | 1.99e6 | 1.34e6 | 1.44e6 | inactive |
| CG2225 | 1 | 1.40e6 | 1.50e6 | 1.18e6 | 1.19e6 | inactive |
| CG2225 | 2 | 1.50e6 | 1.59e6 | 1.32e6 | 3.16e5 | inactive |
| CG33639 | 1 | 1.46e6 | 1.40e6 | 1.05e6 | 1.19e6 | inactive |
| CG11777 | 1 | 1.64e6 | 1.70e6 | 1.41e6 | 1.50e6 | inactive |
| BaraB | 1 | 1.50e6 | 1.57e6 | 1.26e6 | 1.34e6 | inactive |
| Kap-alpha3 | 1 | 1.33e6 | 1.39e6 | 7.53e5 | 8.80e5 | active |
| CG9701 | 1 | 1.65e6 | 1.73e6 | 1.16e6 | 1.27e6 | inactive |
| Glt | 1 | 1.07e6 | 1.17e6 | 9.86e5 | 8.91e5 | inactive |
| bc10 | 1 | 1.32e6 | 1.28e6 | 1.16e6 | 1.24e6 | inactive |
| CG4042 | 1 | 1.40e6 | 1.35e6 | 1.35e6 | 1.40e6 | inactive |
| CG15878 | 1 | 1.58e6 | 1.42e6 | 9.23e5 | 1.23e6 | inactive |
| spdo | 1 | 1.48e6 | 1.67e6 | 1.05e6 | 1.11e6 | inactive |
| sba | 1 | 1.14e6 | 1.28e6 | 6.59e5 | 6.29e5 | active |
| sba | 2 | 1.37e6 | 1.41e6 | 9.99e5 | 1.15e6 | inactive |
| Gbs-70E | 1 | 1.36e6 | 1.45e6 | 1.21e6 | 1.29e6 | inactive |
| CR12628 + Mgstl | 1 | 1.40e6 | 1.40e6 | 1.09e6 | 1.16e6 | inactive |
| CR12628 + Mgstl | 2 | 1.80e6 | 1.88e6 | 1.21e6 | 1.35e6 | inactive |
| CG2004 | 1 | 1.67e6 | 1.70e6 | 1.13e6 | 1.20e6 | inactive |
| CG32440 | 1 | 1.33e6 | 1.50e6 | 1.10e6 | 1.29e6 | inactive |
| CG14852 | 1 | 1.51e6 | 1.59e6 | 1.06e6 | 1.22e6 | inactive |
| CG14020 | 1 | 1.50e6 | 1.38e6 | 1.13e6 | 1.24e6 | inactive |
| CG15203 | 1 | 1.59e6 | 1.49e6 | 1.02e6 | 1.17e6 | inactive |
| CG4853 | 1 | 1.41e6 | 1.46e6 | 1.20e6 | 1.15e6 | inactive |

Entries listed above with an active call:
| gene | reagent | Kc cell number, rep 1 | Kc cell number, rep 2 | S2R+ cell number, rep 1 | S2R+ cell number, rep 2 | outcome |
| --- | --- | --- | --- | --- | --- | --- |
| Kap-alpha3 | 1 | 1.33e6 | 1.39e6 | 7.53e5 | 8.80e5 | active |
| sba | 1 | 1.14e6 | 1.28e6 | 6.59e5 | 6.29e5 | active |
